Experimental data from PubChem BioAssay AID1347075 (National Center for Advancing Translational Sciences (NCATS), 2019).
The whole screen tested about 400,000 compounds, of which about 5,500 (1.4%) were called active. The inconclusive results got no clear call from the source; some entries with a clear call stand among them for comparison. The call rests on the fitted dose curve; in most records, active means well fitted cell-killing curve with a large enough effect; inconclusive means small, poorly fitted or top-dose-only effect, or effect the other way; inactive means flat fitted curve, though single readings scatter. Potencies of inconclusive entries are doubtful fits and often do not repeat.
On the % scale 0 is the no-effect control and ±100 the full control effect; potency means the concentration at half of the fitted maximal effect.

Experiment: qHTS assay for MDR1-selective chemotherapeutics: Primary screen using the parental adenocarcinoma cell KB-3-1; further: nearly all actives have a fitted effect of over 60% in size
Details: KB-3-1 viability, CellTiter-Glo ATP luminescence, 72 h; activity change, negative = cytotoxic: at 46.1 µM (top of the series)
Procedure, shortened: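 Viability of parental KB-3-1 cells, measured by CellTiter-Glo luminescence, followed a 72 h incubation at 37 °C with pinned compounds in phenol-red-free DMEM containing 10% FBS.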
With CCC(Oc1ccccc1)C(=O)N1CCN(Cc2cc(=O)n3nc(-c4cccc(C)c4)sc3n2)CC1 (centres undefined) the Potency was inconclusive: 5.17 µM [cytotoxic, partial curve, poor fit]. For COc1ccccc1N1CCN(C(=O)CCc2nnc3ccc(N4CCCC4)nn23)CC1, the Potency was inconclusive: 4.11 µM [rising, full curve, poor fit]. With Cc1cc(N2CCN(C)CC2)nc2ccc(NC(=O)Nc3ccc(F)cc3F)cc12 the Potency was inconclusive: 29.1 µM [cytotoxic, single point]. For CC(C)NC(=O)Cn1cc(S(=O)(=O)N2CCCC2)c(S(=O)(=O)N2CCCC2)c1, the Potency was “inactive”. For CN(C)c1ccc(/C=C/c2sc3ccccc3[n+]2CCCCI)cc1, the Potency was inconclusive: 16.4 µM [cytotoxic, single point]. In the case of N#Cc1c(N2CCN(c3ccc([N+](=O)[O-])cc3)CC2)[n+](=O)c2ccc(Cl)cc2n1[O-], the Potency is reported as inconclusive: 29.1 µM [cytotoxic, single point]. With CCN(CC)C(=S)Nc1ccc(Cl)c(Cl)c1 the Potency was inconclusive: 32.6 µM [cytotoxic, single point]. For CC(=O)Nc1ccc(NC(=O)CSc2nnc(NC(=O)c3ccc(Br)o3)s2)cc1, the Potency was inconclusive: 29.1 µM [cytotoxic, single point]. In the case of CCOc1ccc2nc3c(cc2c1)CN(CCCO)C(=NCCOC)S3, the Potency is reported as “inactive”. In the case of Cc1nc2scc(-c3ccc(C(C)(C)C)cc3)c2c(=O)n1N, the Potency is reported as inconclusive: 29.1 µM [rising, single point]. For CC(C)CCn1c(Oc2ccc(Cl)cc2)nc2c1c(=O)n(C)c(=O)n2C, the Potency was inconclusive: 29.1 µM [cytotoxic, single point]. With O=C1CN(C(=O)COC(=O)c2ccc([N+](=O)[O-])s2)c2ccccc2N1 the Potency was inconclusive: 16.4 µM [cytotoxic, single point]. For COCCCNC(CC(=O)Nc1cc(C)cc(C)c1)C(=O)O (centres undefined), the Potency was inconclusive: 29.1 µM [cytotoxic, single point]. With C=CC[C@@H](CC(=O)N[C@@H](CO)Cc1ccccc1)C(=O)N[C@@H](C)COC(=O)[C@@H](CC=C)Cc1ccc(F)cc1 the Potency was “inactive”. With CC[n+]1c(/C=C2\C=C(C)CC(C)C2)sc2ccccc21 (centres undefined) the Potency was “inactive”. In the case of Cc1ccc(-n2[nH]c(C)c(C=Nc3cc(C)ccn3)c2=O)cc1, the Potency is reported as inconclusive: 18.4 µM [cytotoxic, single point]. In the case of CNc1ccc(/C=C/C(=O)c2cccc3ccccc23)cc1[N+](=O)[O-], the Potency is reported as inconclusive: 29.1 µM [cytotoxic, single point]. For O=C(Nc1nc2ccccc2[nH]1)c1ccc(F)cc1, the Potency was inconclusive: 29.1 µM [cytotoxic, single point]. For CCOC(=O)c1cnc2ccc(OCC)cc2c1NCc1ccccc1OC, the Potency was inconclusive: 29.1 µM [cytotoxic, single point]. With CCN(c1ccccc1)S(=O)(=O)c1ccc(NC(=O)c2nc(S(C)(=O)=O)ncc2Cl)cc1 the Potency was active: 5.17 µM. In the case of CSc1nnc(NC(=O)c2nc(S(=O)(=O)Cc3cccc(C)c3)ncc2Cl)s1, the Potency is reported as active: 16.4 µM. For CCc1ccc(C(=O)COC(=O)C(NC(=O)C2CCC(C)CC2)C(C)C)cc1 (centres undefined), the activity change, negative = cytotoxic was inconclusive: -34% [cytotoxic]. With Cc1ccccc1-c1nc(-c2ccccn2)no1 the Potency was inconclusive: 29.1 µM [cytotoxic, single point]. In the case of O=C(Nc1ccc2ccccc2c1)N1CCCN(CCOc2ccccc2)CC1, the Potency is reported as inconclusive: 29.1 µM [cytotoxic, single point]. In the case of CCn1c(/C=C/c2c(C)[nH]c3ccccc23)nc2ccccc2c1=O, the Potency is reported as “inactive”. For CN(CC(=O)Nc1ccc(OC(F)(F)F)cc1)C(=O)Cc1cccs1, the Potency was “inactive”. With O=C(Nc1cc(Cl)ccc1Cl)C1Cc2ccccc2O/C1=N\O (centres undefined) the Potency was “inactive”. In the case of Cc1c(/C=N/Nc2nc3ccccc3[nH]2)c2ccccc2n1C, the Potency is reported as inconclusive: 29.1 µM [cytotoxic, single point]. For CC(C)N1CCc2c(sc(NC(=O)c3ccc4ccccc4c3)c2C(N)=O)C1, the Potency was inconclusive: 29.1 µM [cytotoxic, single point]. In the case of FC(F)(F)c1cccc(N2CCC(N=CN3CCCCCC3)=N2)c1, the Potency is reported as inconclusive: 25.9 µM [cytotoxic, single point]. In the case of COc1cc2c(cc1OC)C(C)N(C(=O)c1cc(C)on1)CC2 (centres undefined), the Potency is reported as inconclusive: 0.731 µM [cytotoxic, full curve, poor fit]. For O=S(=O)(c1ccc(SCCOc2ccc(Cl)cc2)nc1)N1CCCC1, the Potency was inconclusive: 25.9 µM [cytotoxic, single point]. In the case of COc1cccc(CNc2cc(CSc3ccc(Cl)cc3)nc(C)n2)c1, the Potency is reported as inconclusive: 20.6 µM [cytotoxic, single point]. For COc1cc(OC)c(S(=O)(=O)NCc2ccco2)cc1S(=O)(=O)NCc1ccco1, the Potency was “inactive”. For Cc1ccc(S[C@@H](CCN2CC[C@H](C(C)(C)C)CCC2=O)c2ccccc2)cc1, the Potency was inconclusive: 13 µM [cytotoxic, single point]. In the case of Cc1ccc(OCCC(=O)Nc2ccc(S(=O)(=O)Nc3nccs3)cc2)cc1, the Potency is reported as inconclusive: 0.58 µM [cytotoxic, full curve]. With Cn1c(=S)c2[nH]c(SCCC(C)(C)C)nc2n(C)c1=O the Potency was inconclusive: 7.31 µM [cytotoxic, partial curve, poor fit]. With CN(CCCC(=O)Nc1ccc(Br)cc1F)S(=O)(=O)c1ccccc1 the Potency was “inactive”. For CC(C)=CC(=O)OCC(=O)Nc1ccc(Cl)cn1, the Potency was “inactive”. In the case of O=C(CC1Sc2ccccc2NC1=O)NCc1ccc(Cl)cc1 (centres undefined), the Potency is reported as “inactive”. In the case of Cc1ccc(-c2nc(NC(=O)CSc3nnc4scc(-c5ccccc5)n34)ns2)cc1, the Potency is reported as “inactive”. In the case of CC1=[N+](C)c2ccc3ccccc3c2C1(C)C, the Potency is reported as inconclusive: 9.2 µM [cytotoxic, partial curve, poor fit]. In the case of COc1cccc(Cn2c(C(C)n3c(-c4cnccn4)nc4ccccc43)nc3ccccc32)c1 (centres undefined), the Potency is reported as inconclusive: 18.4 µM [cytotoxic, single point]. In the case of CC(NC(=O)C1CCN(C(=O)c2ccc(F)cc2)CC1)c1ccc(S(N)(=O)=O)cc1 (centres undefined), the Potency is reported as inconclusive: 4.61 µM [rising, partial curve, poor fit].
